The test has as its target T1, hPDPN-Fc (human) (UniProt Q86YL7).
T1 sequence: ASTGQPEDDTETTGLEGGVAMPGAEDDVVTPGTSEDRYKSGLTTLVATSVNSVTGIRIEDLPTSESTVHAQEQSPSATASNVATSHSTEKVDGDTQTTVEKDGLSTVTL
Nature of the test: ELISA; inhibition assay: purified hPDPN-Fc immobilised at 1 μg/ml on Maxisorp plates; after blocking, LpMab-7 or NZ-1 added at 1 μg/ml for 30 min; then biotinylated CLEC-2-Fc (1 μg/ml) and peroxidase-conjugated streptavidin; OD at 655 nm; both purified. In general terms: In an ELISA, binding on a coated surface is turned into a signal by an enzyme label.

By UniProt entry, the sequences of proteins in these tests, tags left out. Residues count along the entry.
UniProt Q9P126, residues 55-229: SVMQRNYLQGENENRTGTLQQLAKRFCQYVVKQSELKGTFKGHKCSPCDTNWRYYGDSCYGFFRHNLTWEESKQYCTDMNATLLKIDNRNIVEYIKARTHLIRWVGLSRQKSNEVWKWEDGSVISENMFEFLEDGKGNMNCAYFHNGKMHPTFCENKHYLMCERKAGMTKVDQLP

No constants are given. Whether binding was seen depends on the method and setting. Some entries that bind do so weakly or less than the wild type. Where a sequence is shown, tags or fusion partners need not be part of it.

In the case of “CLEC-2-Fc (from UniProt Q9P126 55-229) (Fc fusion)”, the binding result is given as “binds”.

The values are drawn from article PMC4742157.
